Source: PubChem BioAssay AID1508597 (Cure First, 2020)
In all, the deposit lists about 2,100 reagents; this is a random part of them. 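Calls flag viability under 80% in either arm, not effects specific to rucaparib; the reference for percent is not stated.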 Entries without a mark were called inactive. A reagent listed more than once was tested more than once; the source does not tell the runs apart. Reagent sequences are not shown. Not stated in the record: the 100% reference.

Screen: 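Survival screen with siRNA in ovarian cancer cells derived from patients, with or without rucaparib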 (primary screen)
System: human ovarian carcinoma lines grown from tumours: OCI-P5x (papillary serous) and OCI-C5x (clear cell)
Reagents: siRNA pool against human genes, 1.25 pmol siRNA per well
Time to read-out: 72 h or 96 h, depending on the cell culture
Challenge: rucaparib 20 µM (about IC30) or vehicle, present until read-out
Measured: 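ATP luminescence measured at 72 or 96 h according to the culture, then normalised and expressed as percent viability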
Reading the numbers: viability, normalised: higher = more viable cells remaining
Rule for the call: 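Active when normalised viability falls below 80 percent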
Calls: active = viability under 80%; inactive = viability 80% or more

target	PubChem SID	rucaparib or vehicle	cell line	technical replicate	viability, normalised (%)
PRKCB	SID405527197	Rucaparib	OCI-C5x (clear cell)	1	38.2 (active)
PRKCB	SID405527197	Rucaparib	OCI-C5x (clear cell)	1	33.3 (active)
PRKCB	SID405527197	Rucaparib	OCI-C5x (clear cell)	2	28.5 (active)
PRKCB	SID405527197	Rucaparib	OCI-C5x (clear cell)	2	31.9 (active)
PRKCB	SID405527197	Rucaparib	OCI-C5x (clear cell)	3	34.2 (active)
PRKCB	SID405527197	Rucaparib	OCI-C5x (clear cell)	3	30.5 (active)
PRKCB	SID405527197	Rucaparib	OCI-P5x (serous)	1	31.7 (active)
PRKCB	SID405527197	Rucaparib	OCI-P5x (serous)	1	95.6
PRKCB	SID405527197	Rucaparib	OCI-P5x (serous)	2	85.2
PRKCB	SID405527197	Rucaparib	OCI-P5x (serous)	2	38 (active)
PRKCB	SID405527197	Rucaparib	OCI-P5x (serous)	3	71.5 (active)
PRKCB	SID405527197	Rucaparib	OCI-P5x (serous)	3	39.4 (active)
PRKCB	SID405527197	Vehicle	OCI-C5x (clear cell)	1	38 (active)
PRKCB	SID405527197	Vehicle	OCI-C5x (clear cell)	1	125
PRKCB	SID405527197	Vehicle	OCI-C5x (clear cell)	2	47.1 (active)
PRKCB	SID405527197	Vehicle	OCI-C5x (clear cell)	2	26.2 (active)
PRKCB	SID405527197	Vehicle	OCI-C5x (clear cell)	3	37.1 (active)
PRKCB	SID405527197	Vehicle	OCI-C5x (clear cell)	3	60.9 (active)
PRKCB	SID405527197	Vehicle	OCI-P5x (serous)	1	50.1 (active)
PRKCB	SID405527197	Vehicle	OCI-P5x (serous)	1	88.2
PRKCB	SID405527197	Vehicle	OCI-P5x (serous)	2	72.5 (active)
PRKCB	SID405527197	Vehicle	OCI-P5x (serous)	2	47.6 (active)
PRKCB	SID405527197	Vehicle	OCI-P5x (serous)	3	84.7
PRKCB	SID405527197	Vehicle	OCI-P5x (serous)	3	84.5
BRPF3	SID405528050	Rucaparib	OCI-C5x (clear cell)	1	56.7 (active)
BRPF3	SID405528050	Rucaparib	OCI-C5x (clear cell)	2	60.1 (active)
BRPF3	SID405528050	Rucaparib	OCI-C5x (clear cell)	3	48.9 (active)
BRPF3	SID405528050	Rucaparib	OCI-P5x (serous)	1	80.2
BRPF3	SID405528050	Rucaparib	OCI-P5x (serous)	2	75.3 (active)
BRPF3	SID405528050	Rucaparib	OCI-P5x (serous)	3	103
BRPF3	SID405528050	Vehicle	OCI-C5x (clear cell)	1	31.5 (active)
BRPF3	SID405528050	Vehicle	OCI-C5x (clear cell)	2	34.5 (active)
BRPF3	SID405528050	Vehicle	OCI-C5x (clear cell)	3	45.7 (active)
BRPF3	SID405528050	Vehicle	OCI-P5x (serous)	1	72.1 (active)
BRPF3	SID405528050	Vehicle	OCI-P5x (serous)	2	73.9 (active)
BRPF3	SID405528050	Vehicle	OCI-P5x (serous)	3	74.6 (active)
FOXA2	SID405526793	Rucaparib	OCI-C5x (clear cell)	1	31 (active)
FOXA2	SID405526793	Rucaparib	OCI-C5x (clear cell)	2	29.8 (active)
FOXA2	SID405526793	Rucaparib	OCI-C5x (clear cell)	3	34 (active)
FOXA2	SID405526793	Rucaparib	OCI-P5x (serous)	1	54.3 (active)
FOXA2	SID405526793	Rucaparib	OCI-P5x (serous)	2	56.5 (active)
FOXA2	SID405526793	Rucaparib	OCI-P5x (serous)	3	67.7 (active)
FOXA2	SID405526793	Vehicle	OCI-C5x (clear cell)	1	21.4 (active)
FOXA2	SID405526793	Vehicle	OCI-C5x (clear cell)	2	25.4 (active)
FOXA2	SID405526793	Vehicle	OCI-C5x (clear cell)	3	27.2 (active)
FOXA2	SID405526793	Vehicle	OCI-P5x (serous)	1	64.7 (active)
FOXA2	SID405526793	Vehicle	OCI-P5x (serous)	2	77.3 (active)
FOXA2	SID405526793	Vehicle	OCI-P5x (serous)	3	67.9 (active)

6 successive reagents from above, quoted:
target	PubChem SID	rucaparib or vehicle	cell line	technical replicate	viability, normalised (%)
BRPF3	SID405528050	Vehicle	OCI-P5x (serous)	2	73.9 (active)
BRPF3	SID405528050	Vehicle	OCI-P5x (serous)	3	74.6 (active)
FOXA2	SID405526793	Rucaparib	OCI-C5x (clear cell)	1	31 (active)
FOXA2	SID405526793	Rucaparib	OCI-C5x (clear cell)	2	29.8 (active)
FOXA2	SID405526793	Rucaparib	OCI-C5x (clear cell)	3	34 (active)
FOXA2	SID405526793	Rucaparib	OCI-P5x (serous)	1	54.3 (active)
